In article PMC9530460:
Construct, isoform or probe ends are uncertain for at least one entry. Where cells or extracts were used, other partners may take part. For some assays here: A weaker result is weaker than the reference pair of the same experiment.

Protein sequences, listed by entry. Tags and fused reporters are not part of them. Lines headed by an entry give the natural chain unless they say otherwise; changes in a name come on top.
UniProt P05067: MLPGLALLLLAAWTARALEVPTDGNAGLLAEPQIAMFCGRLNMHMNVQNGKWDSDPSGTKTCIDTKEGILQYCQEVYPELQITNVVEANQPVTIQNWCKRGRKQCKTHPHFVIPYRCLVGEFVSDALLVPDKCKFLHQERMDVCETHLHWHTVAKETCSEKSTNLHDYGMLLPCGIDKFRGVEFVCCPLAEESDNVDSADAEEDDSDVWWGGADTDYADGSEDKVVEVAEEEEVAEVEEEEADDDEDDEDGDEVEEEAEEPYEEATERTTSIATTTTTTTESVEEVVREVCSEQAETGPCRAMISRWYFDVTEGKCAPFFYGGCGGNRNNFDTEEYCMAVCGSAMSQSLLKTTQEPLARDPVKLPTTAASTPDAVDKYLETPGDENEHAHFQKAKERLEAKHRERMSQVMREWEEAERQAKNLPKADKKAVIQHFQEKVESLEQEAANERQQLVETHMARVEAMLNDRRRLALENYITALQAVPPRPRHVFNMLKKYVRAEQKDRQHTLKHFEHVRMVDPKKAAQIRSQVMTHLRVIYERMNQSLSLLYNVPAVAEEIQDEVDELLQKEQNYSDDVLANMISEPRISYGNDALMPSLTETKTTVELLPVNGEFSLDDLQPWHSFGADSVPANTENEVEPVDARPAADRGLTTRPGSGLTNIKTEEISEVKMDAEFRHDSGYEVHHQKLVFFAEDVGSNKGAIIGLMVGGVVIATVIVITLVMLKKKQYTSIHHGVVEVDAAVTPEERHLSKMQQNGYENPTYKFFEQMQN

Key:
[1] = target: amyloid-beta peptide 1-42 (Abeta1-42) (UniProt P05067); test: pull-down on graphene oxide with SALDI-TOF MS read-out; settings: aptamer non-covalently bound to GO, low peak (S/N 17), attributed to loss of aptamer-captured peptide on washing; 5'-thiol, coupled to PEGylated graphene oxide via HS-PEG-NH2 (disulfide); Apt-GO prepared in PBS pH 7.4 (aptamer heated 90 C, cooled to room temperature), redispersed in ultrapure water; protein in an extract; residues 672-713; label: 3'-fluorescein (for quantifying immobilization); single-stranded DNA
[2] = target: amyloid-beta peptide 1-42 (Abeta1-42) (UniProt P05067); test: pull-down on aptamer-conjugated graphene oxide with SALDI-TOF MS read-out; settings: aptamer covalently bound to GO, AD cell model, bare GO also adsorbs some peptide; 5'-thiol, coupled to PEGylated graphene oxide via HS-PEG-NH2 (disulfide); Apt-GO prepared in PBS pH 7.4 (aptamer heated 90 C, cooled to room temperature), redispersed in ultrapure water; protein in an extract; residues 672-713; label: 3'-fluorescein (for quantifying immobilization); single-stranded DNA

“AGTCTAGGATTCGGCGTGGGTTAATTTTTTGCTGCCTGTGGTGTTGGGGCGGGTGCG [Abeta1-42 aptamer]”: binds more weakly [1]; binds [2].
